{"source": "PubChem BioAssay AID504808 (Drosophila RNAi Screening Center, 2011)", "test": "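Fly genes required to hold E2F transcription in check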 (primary screen)", "cell system": "Drosophila S2 cells", "knock-down reagent": "long dsRNA against Drosophila genes", "measured": "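Firefly luciferase driven by E2F sites, normalised to Renilla luciferase on the same minimal promoter, measured by plate reader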", "scale": "E2F firefly: higher = more E2F reporter activity; Renilla normaliser: higher = more normaliser reporter signal", "hit rule": "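Called active if the normalised E2F reporter went up by over 50%; the cutoff is arbitrary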", "note": "The deposit covers about 21,000 reagents; shown is a random part of those with a known target gene and a result. Over the whole deposit, 18 (0.084%) got an active call. 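Raw counts without plate normalisation, one of two replicates; the ratio scores behind the calls were not deposited.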 A number with no mark means an inactive call. Reagents against one gene are numbered here. Names joined by + are all predicted targets of the reagent. Reagent sequences are not shown. The record does not give: the amount of reagent, the time to read-out."}
{"gene":"Cht8 (Chitinase 8)","dsRNA no.":1,"E2F firefly, rep 1":86306,"Renilla normaliser, rep 1":4148}
{"gene":"CG10654","dsRNA no.":1,"E2F firefly, rep 1":1.13e5,"Renilla normaliser, rep 1":4403}
{"gene":"Mp (Multiplexin)","dsRNA no.":1,"E2F firefly, rep 1":70259,"Renilla normaliser, rep 1":4164}
{"gene":"Mp (Multiplexin)","dsRNA no.":2,"E2F firefly, rep 1":95389,"Renilla normaliser, rep 1":4131}
{"gene":"Mp (Multiplexin)","dsRNA no.":3,"E2F firefly, rep 1":81535,"Renilla normaliser, rep 1":3689}
{"gene":"kuk (kugelkern)","dsRNA no.":1,"E2F firefly, rep 1":68219,"Renilla normaliser, rep 1":3168}
{"gene":"Tim8","dsRNA no.":1,"E2F firefly, rep 1":1.12e5,"Renilla normaliser, rep 1":5551}
{"gene":"Tsen54 (tRNA splicing endonuclease subunit 54)","dsRNA no.":1,"E2F firefly, rep 1":1.31e5,"Renilla normaliser, rep 1":7107}
{"gene":"CG3492","dsRNA no.":1,"E2F firefly, rep 1":83875,"Renilla normaliser, rep 1":3344}
{"gene":"CG4377","dsRNA no.":1,"E2F firefly, rep 1":73098,"Renilla normaliser, rep 1":3683}
{"gene":"Acyp (Acylphosphatase)","dsRNA no.":1,"E2F firefly, rep 1":95169,"Renilla normaliser, rep 1":3994}
{"gene":"Rh6 (Rhodopsin 6)","dsRNA no.":1,"E2F firefly, rep 1":1.13e5,"Renilla normaliser, rep 1":6877}
{"gene":"Strica (Ser/Thr-rich caspase)","dsRNA no.":1,"E2F firefly, rep 1":1.13e5,"Renilla normaliser, rep 1":4488}
{"gene":"CG10725","dsRNA no.":1,"E2F firefly, rep 1":78360,"Renilla normaliser, rep 1":3334}
{"gene":"acs (arcus)","dsRNA no.":1,"E2F firefly, rep 1":96584,"Renilla normaliser, rep 1":4031}
{"gene":"Abd-B (Abdominal B)","dsRNA no.":1,"E2F firefly, rep 1":1.14e5,"Renilla normaliser, rep 1":5111}
{"gene":"Abd-B (Abdominal B)","dsRNA no.":2,"E2F firefly, rep 1":1.18e5,"Renilla normaliser, rep 1":6133}
{"gene":"Ir47a (Ionotropic receptor 47a)","dsRNA no.":1,"E2F firefly, rep 1":1.48e5,"Renilla normaliser, rep 1":4684}
{"gene":"CG11089 + CG31381","dsRNA no.":1,"E2F firefly, rep 1":81660,"Renilla normaliser, rep 1":2829}
{"gene":"CG11089 + CG31381","dsRNA no.":2,"E2F firefly, rep 1":72872,"Renilla normaliser, rep 1":3221}
{"gene":"CG15263","dsRNA no.":1,"E2F firefly, rep 1":1.04e5,"Renilla normaliser, rep 1":4705}
{"gene":"CG4382","dsRNA no.":1,"E2F firefly, rep 1":1.43e5,"Renilla normaliser, rep 1":5365}
{"gene":"Swt1 (Swt1 RNA endoribonuclease)","dsRNA no.":1,"E2F firefly, rep 1":1.47e5,"Renilla normaliser, rep 1":5364}
{"gene":"CG10345","dsRNA no.":1,"E2F firefly, rep 1":76336,"Renilla normaliser, rep 1":3523}
{"gene":"scu (scully)","dsRNA no.":1,"E2F firefly, rep 1":1.51e5,"Renilla normaliser, rep 1":6168}
{"gene":"CG9609","dsRNA no.":1,"E2F firefly, rep 1":1.76e5,"Renilla normaliser, rep 1":6018}
{"gene":"Acsl (Acyl-CoA synthetase long-chain)","dsRNA no.":1,"E2F firefly, rep 1":2261,"Renilla normaliser, rep 1":240}
{"gene":"CG6638","dsRNA no.":1,"E2F firefly, rep 1":1.00e5,"Renilla normaliser, rep 1":4037}
{"gene":"Gasp","dsRNA no.":1,"E2F firefly, rep 1":63412,"Renilla normaliser, rep 1":3185}
{"gene":"CG14000 + bchs","dsRNA no.":1,"E2F firefly, rep 1":1.44e5,"Renilla normaliser, rep 1":4745}
{"gene":"maca","dsRNA no.":1,"E2F firefly, rep 1":88223,"Renilla normaliser, rep 1":5520}
{"gene":"Scsalpha1 (Succinyl-coenzyme A synthetase alpha subunit 1)","dsRNA no.":1,"E2F firefly, rep 1":71809,"Renilla normaliser, rep 1":3224}
{"gene":"PCB (Pyruvate carboxylase)","dsRNA no.":1,"E2F firefly, rep 1":2822,"Renilla normaliser, rep 1":229}
{"gene":"Echs1 (Enoyl-CoA hydratase, short chain 1)","dsRNA no.":1,"E2F firefly, rep 1":1.09e5,"Renilla normaliser, rep 1":4881}
{"gene":"CG34289","dsRNA no.":1,"E2F firefly, rep 1":78564,"Renilla normaliser, rep 1":2160}
{"gene":"Crtp (Caldesmon-related protein)","dsRNA no.":1,"E2F firefly, rep 1":1.02e5,"Renilla normaliser, rep 1":4512}

A stretch from the list above:
{"gene":"CG11089 + CG31381","dsRNA no.":1,"E2F firefly, rep 1":81660,"Renilla normaliser, rep 1":2829}
{"gene":"CG11089 + CG31381","dsRNA no.":2,"E2F firefly, rep 1":72872,"Renilla normaliser, rep 1":3221}
